Test results from article PMC4682171.
These are yes or no findings as the source states them, for the method shown. Binding seen in cells or lysates may run through a third protein. These calls come from enrichment with a bait or labelling near it, and not all partners need be listed.

Sequences of proteins named here, by UniProt entry; tags and fusion partners are left off.
UniProt P12004: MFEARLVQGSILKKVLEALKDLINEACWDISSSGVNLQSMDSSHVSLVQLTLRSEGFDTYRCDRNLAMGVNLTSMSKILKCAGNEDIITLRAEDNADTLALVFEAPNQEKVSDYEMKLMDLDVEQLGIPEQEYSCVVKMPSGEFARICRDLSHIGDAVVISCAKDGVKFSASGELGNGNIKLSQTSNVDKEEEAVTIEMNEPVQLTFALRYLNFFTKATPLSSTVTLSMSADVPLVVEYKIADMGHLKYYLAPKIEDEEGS

Molecular target: T1, Set8 (affinity purification coupled with mass spectrometry) (UniProt Q9NQR1)
T1 sequence: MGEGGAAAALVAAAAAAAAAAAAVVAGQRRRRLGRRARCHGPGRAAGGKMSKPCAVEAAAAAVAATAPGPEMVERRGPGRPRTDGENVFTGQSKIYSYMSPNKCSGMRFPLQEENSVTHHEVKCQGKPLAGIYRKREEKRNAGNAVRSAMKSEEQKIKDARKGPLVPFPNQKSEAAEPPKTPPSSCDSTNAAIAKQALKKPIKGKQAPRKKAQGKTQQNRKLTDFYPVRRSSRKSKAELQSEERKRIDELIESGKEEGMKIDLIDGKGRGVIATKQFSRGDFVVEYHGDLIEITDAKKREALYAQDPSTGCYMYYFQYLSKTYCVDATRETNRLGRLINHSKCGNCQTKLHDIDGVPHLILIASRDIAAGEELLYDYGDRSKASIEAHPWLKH
Experiment: affinity purification with mass spectrometry; whole cellular extracts, affinity purification with anti-Flag antibody, SDS-PAGE, silver stain, bands analysed by mass spectrometry (the methods name Flag-β-TRCP1 stably expressing 293 T cells)

With PCNA (from UniProt P12004 1-261) the binding was “binds”.

β-TRCP (found by mass spectrometry) was tested, and the binding was “binds”.
